In the supplement of paper PMC12823440, “Inhibitors supercharge kinase turnover through native proteolytic circuits” (Nature, 2025):
Structures can show the parent of a compound that is named as a salt. The list shows a part of the results. The calls rarely recur for the same compound in another form.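 Kinases were expressed as nanoluciferase fusions in K562 cells and luminescence was read every 4 h between 2 and 18 h as percent of control, DMSO set to 100% and a positive control to 0%. A time point counts as decreased when the signal drops significantly (2 sigma). The hit call is the authors' own, does not follow from the count of time points alone, and its rule is not shown.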

Protein sequences, listed by entry. Tags and fused reporters are not part of them. Lines headed by an entry give the natural chain unless they say otherwise; changes in a name come on top.
UniProt Q15208: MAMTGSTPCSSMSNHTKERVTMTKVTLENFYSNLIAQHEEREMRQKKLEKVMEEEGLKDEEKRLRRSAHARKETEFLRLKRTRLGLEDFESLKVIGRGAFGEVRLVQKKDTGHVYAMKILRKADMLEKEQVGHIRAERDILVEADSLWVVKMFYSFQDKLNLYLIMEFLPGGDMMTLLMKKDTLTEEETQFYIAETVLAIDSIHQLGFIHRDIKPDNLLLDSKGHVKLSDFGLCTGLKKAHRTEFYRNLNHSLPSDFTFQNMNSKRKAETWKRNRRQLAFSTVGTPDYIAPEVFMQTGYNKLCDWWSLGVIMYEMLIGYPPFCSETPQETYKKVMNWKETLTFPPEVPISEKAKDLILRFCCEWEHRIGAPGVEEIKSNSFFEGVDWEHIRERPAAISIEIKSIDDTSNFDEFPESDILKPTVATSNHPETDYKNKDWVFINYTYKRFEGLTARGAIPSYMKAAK
UniProt P42680: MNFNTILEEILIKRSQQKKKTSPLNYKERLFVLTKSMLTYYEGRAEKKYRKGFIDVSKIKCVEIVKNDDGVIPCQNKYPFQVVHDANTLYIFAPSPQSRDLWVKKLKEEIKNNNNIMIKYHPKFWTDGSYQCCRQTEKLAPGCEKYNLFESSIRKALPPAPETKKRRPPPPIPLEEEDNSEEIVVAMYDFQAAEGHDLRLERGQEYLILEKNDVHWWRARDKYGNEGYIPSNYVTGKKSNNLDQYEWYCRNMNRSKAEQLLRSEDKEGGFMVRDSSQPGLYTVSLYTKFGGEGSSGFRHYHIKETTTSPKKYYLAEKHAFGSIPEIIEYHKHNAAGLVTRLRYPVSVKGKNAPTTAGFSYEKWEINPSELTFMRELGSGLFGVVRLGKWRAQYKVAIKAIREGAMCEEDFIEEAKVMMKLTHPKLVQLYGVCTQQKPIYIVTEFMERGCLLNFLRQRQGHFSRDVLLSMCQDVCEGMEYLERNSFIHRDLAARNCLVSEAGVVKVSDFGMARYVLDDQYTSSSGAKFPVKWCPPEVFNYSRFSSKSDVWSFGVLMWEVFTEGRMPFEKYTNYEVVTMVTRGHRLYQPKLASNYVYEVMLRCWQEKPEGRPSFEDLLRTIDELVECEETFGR
UniProt P29597: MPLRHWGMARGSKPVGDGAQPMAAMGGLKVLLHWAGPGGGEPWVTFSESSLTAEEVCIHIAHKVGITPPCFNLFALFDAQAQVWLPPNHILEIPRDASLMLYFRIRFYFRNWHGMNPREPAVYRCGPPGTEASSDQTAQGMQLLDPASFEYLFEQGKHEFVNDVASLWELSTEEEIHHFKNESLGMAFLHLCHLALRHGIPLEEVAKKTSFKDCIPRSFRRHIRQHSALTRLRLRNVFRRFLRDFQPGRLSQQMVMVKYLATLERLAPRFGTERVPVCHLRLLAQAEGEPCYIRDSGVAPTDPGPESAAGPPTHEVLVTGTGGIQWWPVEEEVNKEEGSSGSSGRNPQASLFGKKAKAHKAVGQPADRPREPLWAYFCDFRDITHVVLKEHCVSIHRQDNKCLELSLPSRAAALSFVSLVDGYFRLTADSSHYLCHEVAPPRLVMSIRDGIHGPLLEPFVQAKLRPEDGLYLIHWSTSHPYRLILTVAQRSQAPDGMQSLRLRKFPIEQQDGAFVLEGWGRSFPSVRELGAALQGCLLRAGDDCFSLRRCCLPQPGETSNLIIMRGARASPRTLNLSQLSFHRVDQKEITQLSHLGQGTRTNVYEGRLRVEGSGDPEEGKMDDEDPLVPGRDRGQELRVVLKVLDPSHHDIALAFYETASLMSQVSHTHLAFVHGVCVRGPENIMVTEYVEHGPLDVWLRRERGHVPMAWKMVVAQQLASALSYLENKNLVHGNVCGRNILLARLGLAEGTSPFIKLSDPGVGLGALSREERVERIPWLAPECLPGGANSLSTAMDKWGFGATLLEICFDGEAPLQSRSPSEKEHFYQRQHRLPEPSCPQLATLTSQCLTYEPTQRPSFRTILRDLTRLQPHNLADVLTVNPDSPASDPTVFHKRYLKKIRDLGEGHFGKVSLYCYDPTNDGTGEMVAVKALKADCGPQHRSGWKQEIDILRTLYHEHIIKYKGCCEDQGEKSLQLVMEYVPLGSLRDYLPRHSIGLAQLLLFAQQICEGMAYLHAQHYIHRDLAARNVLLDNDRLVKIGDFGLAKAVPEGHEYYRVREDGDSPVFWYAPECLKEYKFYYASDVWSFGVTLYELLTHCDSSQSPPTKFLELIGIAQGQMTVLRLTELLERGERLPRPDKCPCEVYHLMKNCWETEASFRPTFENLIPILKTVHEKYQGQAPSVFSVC
UniProt Q6PHR2: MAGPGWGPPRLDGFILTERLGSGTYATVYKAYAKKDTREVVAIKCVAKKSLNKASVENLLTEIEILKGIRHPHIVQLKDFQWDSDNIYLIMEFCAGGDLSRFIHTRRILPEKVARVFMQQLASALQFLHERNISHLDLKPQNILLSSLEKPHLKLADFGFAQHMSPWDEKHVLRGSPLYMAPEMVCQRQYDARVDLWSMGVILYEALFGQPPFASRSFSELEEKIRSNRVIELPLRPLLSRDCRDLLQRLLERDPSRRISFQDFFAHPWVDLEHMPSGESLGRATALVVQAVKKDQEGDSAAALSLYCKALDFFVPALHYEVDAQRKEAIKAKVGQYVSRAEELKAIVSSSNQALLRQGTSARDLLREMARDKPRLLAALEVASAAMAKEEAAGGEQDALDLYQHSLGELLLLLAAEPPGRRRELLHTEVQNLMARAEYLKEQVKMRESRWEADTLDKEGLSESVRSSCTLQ
UniProt P07947, whole entry, looked up: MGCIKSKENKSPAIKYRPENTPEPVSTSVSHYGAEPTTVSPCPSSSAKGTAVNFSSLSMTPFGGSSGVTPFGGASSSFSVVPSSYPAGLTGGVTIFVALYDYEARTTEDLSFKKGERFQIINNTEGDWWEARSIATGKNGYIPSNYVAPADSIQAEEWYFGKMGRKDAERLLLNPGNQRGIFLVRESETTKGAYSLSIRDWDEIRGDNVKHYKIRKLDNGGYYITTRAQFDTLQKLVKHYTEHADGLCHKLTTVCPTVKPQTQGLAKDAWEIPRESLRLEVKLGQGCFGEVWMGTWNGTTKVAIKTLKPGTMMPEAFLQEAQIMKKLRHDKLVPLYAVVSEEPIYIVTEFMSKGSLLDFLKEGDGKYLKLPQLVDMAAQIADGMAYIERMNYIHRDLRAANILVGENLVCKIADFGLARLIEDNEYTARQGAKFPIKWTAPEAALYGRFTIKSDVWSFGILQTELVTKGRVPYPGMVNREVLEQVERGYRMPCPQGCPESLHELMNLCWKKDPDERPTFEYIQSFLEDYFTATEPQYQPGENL
UniProt P43403: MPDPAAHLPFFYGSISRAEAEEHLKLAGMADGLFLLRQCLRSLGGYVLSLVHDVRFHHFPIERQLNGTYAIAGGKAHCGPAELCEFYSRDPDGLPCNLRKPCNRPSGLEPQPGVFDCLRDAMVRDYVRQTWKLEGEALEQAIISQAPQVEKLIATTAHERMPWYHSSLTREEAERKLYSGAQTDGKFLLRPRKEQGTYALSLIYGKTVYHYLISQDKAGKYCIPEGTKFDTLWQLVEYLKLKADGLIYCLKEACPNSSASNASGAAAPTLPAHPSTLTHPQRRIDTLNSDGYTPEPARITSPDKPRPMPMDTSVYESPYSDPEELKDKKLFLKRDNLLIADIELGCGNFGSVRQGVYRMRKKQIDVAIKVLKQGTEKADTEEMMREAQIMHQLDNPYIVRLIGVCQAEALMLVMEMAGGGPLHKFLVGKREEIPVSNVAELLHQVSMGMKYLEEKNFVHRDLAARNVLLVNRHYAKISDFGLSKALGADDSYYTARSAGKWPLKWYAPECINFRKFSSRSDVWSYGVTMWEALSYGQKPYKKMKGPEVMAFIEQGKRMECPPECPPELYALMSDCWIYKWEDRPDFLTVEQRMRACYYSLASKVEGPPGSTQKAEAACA
UniProt P00519, whole entry: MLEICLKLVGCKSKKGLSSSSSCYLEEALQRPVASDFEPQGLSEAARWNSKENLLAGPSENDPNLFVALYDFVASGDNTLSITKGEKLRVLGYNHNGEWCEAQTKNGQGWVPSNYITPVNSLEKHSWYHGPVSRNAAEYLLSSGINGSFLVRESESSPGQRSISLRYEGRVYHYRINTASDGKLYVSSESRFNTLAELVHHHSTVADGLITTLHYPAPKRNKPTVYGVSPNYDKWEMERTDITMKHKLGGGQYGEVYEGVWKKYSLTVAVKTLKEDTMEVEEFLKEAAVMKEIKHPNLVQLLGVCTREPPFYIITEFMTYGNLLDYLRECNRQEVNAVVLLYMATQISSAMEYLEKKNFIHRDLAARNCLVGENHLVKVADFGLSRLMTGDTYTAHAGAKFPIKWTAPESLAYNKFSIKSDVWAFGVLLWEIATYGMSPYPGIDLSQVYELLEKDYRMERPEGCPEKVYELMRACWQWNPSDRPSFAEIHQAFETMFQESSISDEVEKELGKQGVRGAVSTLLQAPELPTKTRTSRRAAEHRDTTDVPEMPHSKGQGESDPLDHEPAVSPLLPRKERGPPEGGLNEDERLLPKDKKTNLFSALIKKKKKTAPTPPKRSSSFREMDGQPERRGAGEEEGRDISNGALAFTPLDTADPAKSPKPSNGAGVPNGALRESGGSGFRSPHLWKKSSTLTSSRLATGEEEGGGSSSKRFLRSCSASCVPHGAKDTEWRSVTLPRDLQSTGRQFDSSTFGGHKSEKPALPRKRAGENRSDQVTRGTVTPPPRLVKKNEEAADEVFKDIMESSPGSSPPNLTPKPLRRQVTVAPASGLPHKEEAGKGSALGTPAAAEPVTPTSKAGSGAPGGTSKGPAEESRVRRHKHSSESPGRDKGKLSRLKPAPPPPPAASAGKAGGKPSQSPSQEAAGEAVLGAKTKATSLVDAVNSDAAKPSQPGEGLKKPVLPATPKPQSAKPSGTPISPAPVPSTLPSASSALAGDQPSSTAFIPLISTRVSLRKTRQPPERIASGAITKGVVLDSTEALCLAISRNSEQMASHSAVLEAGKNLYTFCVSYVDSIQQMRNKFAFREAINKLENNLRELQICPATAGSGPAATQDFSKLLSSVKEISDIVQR
UniProt P31749: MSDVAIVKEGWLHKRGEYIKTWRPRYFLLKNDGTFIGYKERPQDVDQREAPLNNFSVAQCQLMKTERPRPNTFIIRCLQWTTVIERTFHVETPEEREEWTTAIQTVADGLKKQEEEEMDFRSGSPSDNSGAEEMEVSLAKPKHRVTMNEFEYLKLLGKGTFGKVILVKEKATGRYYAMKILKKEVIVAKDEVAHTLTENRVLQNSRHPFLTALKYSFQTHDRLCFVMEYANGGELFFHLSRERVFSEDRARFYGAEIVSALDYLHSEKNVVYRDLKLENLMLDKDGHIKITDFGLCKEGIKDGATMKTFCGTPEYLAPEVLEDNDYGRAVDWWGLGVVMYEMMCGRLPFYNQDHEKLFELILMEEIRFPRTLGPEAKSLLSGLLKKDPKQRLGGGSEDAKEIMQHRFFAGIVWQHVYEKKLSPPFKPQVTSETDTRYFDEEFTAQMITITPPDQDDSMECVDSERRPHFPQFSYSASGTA

Key:
Details in all cases: K562; 2-18 h
STK38 = STK38 (UniProt Q15208); test: kinase-Nluc reporter destabilization hit call (1 = scored as downregulated) (binary); higher = compound decreases kinase abundance
SYK = SYK (UniProt P43405); test: as above
TEC = TEC (UniProt P42680); test: as above
TYK2 = TYK2 (UniProt P29597); test: as above
ULK3 = ULK3 (UniProt Q6PHR2); test: as above
YES1 = YES1 (UniProt P07947); test: as above
ZAK = ZAK (UniProt Q9NYL2); test: as above
ZAP70 = ZAP70 (UniProt P43403); test: as above
ABL1 = ABL1 (UniProt P00519); test: number of time points (of 5) at which kinase-Nluc abundance scored as decreased, DMSO-normalised (count); higher = more persistent destabilization
AKT1 = AKT1 (UniProt P31749); test: as above

S=C(NCc1ccc2c(c1)OCO2)N1CCN(c2ncnc3c2oc2ccccc23)CC1 [Amuvatinib] (2.5 µM)
inactive: kinase-Nluc reporter destabilization hit call (STK38) 0 | kinase-Nluc reporter destabilization hit call (SYK) 0 | kinase-Nluc reporter destabilization hit call (TEC) 0 | kinase-Nluc reporter destabilization hit call (TYK2) 0 | kinase-Nluc reporter destabilization hit call (ULK3) 0 | kinase-Nluc reporter destabilization hit call (YES1) 0 | kinase-Nluc reporter destabilization hit call (ZAK) 0 | kinase-Nluc reporter destabilization hit call (ZAP70) 0
0: number of time points (ABL1) | number of time points (AKT1)

Fc1ccc(Cl)cc1-c1nc(Nc2ccncc2)c2nccnc2n1 (10 µM)
inactive: kinase-Nluc reporter destabilization hit call (STK38) 0 | kinase-Nluc reporter destabilization hit call (SYK) 0 | kinase-Nluc reporter destabilization hit call (TEC) 0 | kinase-Nluc reporter destabilization hit call (TYK2) 0 | kinase-Nluc reporter destabilization hit call (ULK3) 0 | kinase-Nluc reporter destabilization hit call (YES1) 0 | kinase-Nluc reporter destabilization hit call (ZAK) 0 | kinase-Nluc reporter destabilization hit call (ZAP70) 0
0: number of time points (ABL1) | number of time points (AKT1)

Cc1ncsc1-c1ccc(CNC(=O)[C@@H]2C[C@@H](O)CN2C(=O)[C@@H](NC(=O)COCCOc2ccc(-c3cc(Nc4ccc(OC(F)(F)F)cc4)ncn3)cc2)C(C)(C)C)cc1 (2.5 µM)
0: number of time points (AKT1)
inactive: kinase-Nluc reporter destabilization hit call (STK38) 0 | kinase-Nluc reporter destabilization hit call (SYK) 0 | kinase-Nluc reporter destabilization hit call (TEC) 0 | kinase-Nluc reporter destabilization hit call (TYK2) 0 | kinase-Nluc reporter destabilization hit call (ULK3) 0 | kinase-Nluc reporter destabilization hit call (YES1) 0 | kinase-Nluc reporter destabilization hit call (ZAK) 0 | kinase-Nluc reporter destabilization hit call (ZAP70) 0
5: number of time points (ABL1)

CN(C[C@@H]1COCCO1)S(=O)(=O)Nc1ccc2ccc3ncc(-c4cnn(C)c4)cc3c(=O)c2c1 (2.5 µM)
0: number of time points (ABL1) | number of time points (AKT1)
inactive: kinase-Nluc reporter destabilization hit call (STK38) 0 | kinase-Nluc reporter destabilization hit call (SYK) 0 | kinase-Nluc reporter destabilization hit call (TEC) 0 | kinase-Nluc reporter destabilization hit call (TYK2) 0 | kinase-Nluc reporter destabilization hit call (ULK3) 0 | kinase-Nluc reporter destabilization hit call (YES1) 0 | kinase-Nluc reporter destabilization hit call (ZAK) 0 | kinase-Nluc reporter destabilization hit call (ZAP70) 0

N=C(NC(=N)N1CCCC1)Nc1ccc(OC(F)(F)F)cc1 (10 µM)
inactive: kinase-Nluc reporter destabilization hit call (STK38) 0 | kinase-Nluc reporter destabilization hit call (SYK) 0 | kinase-Nluc reporter destabilization hit call (TEC) 0 | kinase-Nluc reporter destabilization hit call (TYK2) 0 | kinase-Nluc reporter destabilization hit call (ULK3) 0 | kinase-Nluc reporter destabilization hit call (YES1) 0 | kinase-Nluc reporter destabilization hit call (ZAK) 0 | kinase-Nluc reporter destabilization hit call (ZAP70) 0
0: number of time points (ABL1) | number of time points (AKT1)

C=CC(=O)Nc1cccc(Oc2nc(Nc3ccc(N4CCN(C)CC4)cc3OC)ncc2Cl)c1 (10 µM)
0: number of time points (ABL1) | number of time points (AKT1)
inactive: kinase-Nluc reporter destabilization hit call (STK38) 0 | kinase-Nluc reporter destabilization hit call (SYK) 0 | kinase-Nluc reporter destabilization hit call (TEC) 0 | kinase-Nluc reporter destabilization hit call (TYK2) 0 | kinase-Nluc reporter destabilization hit call (ULK3) 0 | kinase-Nluc reporter destabilization hit call (YES1) 0 | kinase-Nluc reporter destabilization hit call (ZAK) 0 | kinase-Nluc reporter destabilization hit call (ZAP70) 0

COc1cc2nnc(C(N)=O)c(Nc3ccc(C)cc3F)c2cc1N1CCN(CCO)CC1 (2.5 µM)
0: number of time points (ABL1) | number of time points (AKT1)
inactive: kinase-Nluc reporter destabilization hit call (STK38) 0 | kinase-Nluc reporter destabilization hit call (SYK) 0 | kinase-Nluc reporter destabilization hit call (TEC) 0 | kinase-Nluc reporter destabilization hit call (TYK2) 0 | kinase-Nluc reporter destabilization hit call (ULK3) 0 | kinase-Nluc reporter destabilization hit call (YES1) 0 | kinase-Nluc reporter destabilization hit call (ZAK) 0 | kinase-Nluc reporter destabilization hit call (ZAP70) 0

Nc1nccc(Oc2ccc3c(C(=O)Nc4cccc(C(F)(F)F)c4)cccc3c2)n1 (10 µM)
0: number of time points (ABL1) | number of time points (AKT1)
inactive: kinase-Nluc reporter destabilization hit call (STK38) 0 | kinase-Nluc reporter destabilization hit call (SYK) 0 | kinase-Nluc reporter destabilization hit call (TEC) 0 | kinase-Nluc reporter destabilization hit call (TYK2) 0 | kinase-Nluc reporter destabilization hit call (ULK3) 0 | kinase-Nluc reporter destabilization hit call (YES1) 0 | kinase-Nluc reporter destabilization hit call (ZAK) 0 | kinase-Nluc reporter destabilization hit call (ZAP70) 0

O=[N+]([O-])c1ccc(-c2nc(-c3ccc(F)cc3)c(-c3ccncc3)[nH]2)cc1 (10 µM)
inactive: kinase-Nluc reporter destabilization hit call (STK38) 0 | kinase-Nluc reporter destabilization hit call (SYK) 0 | kinase-Nluc reporter destabilization hit call (TEC) 0 | kinase-Nluc reporter destabilization hit call (ULK3) 0 | kinase-Nluc reporter destabilization hit call (YES1) 0 | kinase-Nluc reporter destabilization hit call (ZAK) 0 | kinase-Nluc reporter destabilization hit call (ZAP70) 0
active: kinase-Nluc reporter destabilization hit call (TYK2) 1
0: number of time points (ABL1) | number of time points (AKT1)

CC(ONC(=O)c1cc(C(F)(F)F)cc(C(F)(F)F)c1)C(=O)Nc1ccc(Cl)cc1 (stereo not given) (2.5 µM)
0: number of time points (ABL1) | number of time points (AKT1)
active: kinase-Nluc reporter destabilization hit call (TYK2) 1
inactive: kinase-Nluc reporter destabilization hit call (STK38) 0 | kinase-Nluc reporter destabilization hit call (SYK) 0 | kinase-Nluc reporter destabilization hit call (TEC) 0 | kinase-Nluc reporter destabilization hit call (ULK3) 0 | kinase-Nluc reporter destabilization hit call (YES1) 0 | kinase-Nluc reporter destabilization hit call (ZAK) 0 | kinase-Nluc reporter destabilization hit call (ZAP70) 0

CCOC(=O)c1c(N2CCc3ccc(OC)cc3C2)oc(C=C2C=Nc3ncccc32)c1O (10 µM)
inactive: kinase-Nluc reporter destabilization hit call (STK38) 0 | kinase-Nluc reporter destabilization hit call (SYK) 0 | kinase-Nluc reporter destabilization hit call (TEC) 0 | kinase-Nluc reporter destabilization hit call (ULK3) 0 | kinase-Nluc reporter destabilization hit call (YES1) 0 | kinase-Nluc reporter destabilization hit call (ZAK) 0 | kinase-Nluc reporter destabilization hit call (ZAP70) 0
1: number of time points (ABL1)
0: number of time points (AKT1)
active: kinase-Nluc reporter destabilization hit call (TYK2) 1

Quoted at random: 2 records from the list
CC(ONC(=O)c1cc(C(F)(F)F)cc(C(F)(F)F)c1)C(=O)Nc1ccc(Cl)cc1 (stereo not given) (2.5 µM)
0: number of time points (ABL1) | number of time points (AKT1)
active: kinase-Nluc reporter destabilization hit call (TYK2) 1
inactive: kinase-Nluc reporter destabilization hit call (STK38) 0 | kinase-Nluc reporter destabilization hit call (SYK) 0 | kinase-Nluc reporter destabilization hit call (TEC) 0 | kinase-Nluc reporter destabilization hit call (ULK3) 0 | kinase-Nluc reporter destabilization hit call (YES1) 0 | kinase-Nluc reporter destabilization hit call (ZAK) 0 | kinase-Nluc reporter destabilization hit call (ZAP70) 0

Nc1nccc(Oc2ccc3c(C(=O)Nc4cccc(C(F)(F)F)c4)cccc3c2)n1 (10 µM)
0: number of time points (ABL1) | number of time points (AKT1)
inactive: kinase-Nluc reporter destabilization hit call (STK38) 0 | kinase-Nluc reporter destabilization hit call (SYK) 0 | kinase-Nluc reporter destabilization hit call (TEC) 0 | kinase-Nluc reporter destabilization hit call (TYK2) 0 | kinase-Nluc reporter destabilization hit call (ULK3) 0 | kinase-Nluc reporter destabilization hit call (YES1) 0 | kinase-Nluc reporter destabilization hit call (ZAK) 0 | kinase-Nluc reporter destabilization hit call (ZAP70) 0

(more compounds)

O=C(Nc1ccc(F)cc1F)C(NC(=S)Nc1cc(C(F)(F)F)cc(C(F)(F)F)c1)c1ccccc1 (racemic) (2.5 µM)
1: number of time points (ABL1)
inactive: kinase-Nluc reporter destabilization hit call (STK38) 0 | kinase-Nluc reporter destabilization hit call (SYK) 0 | kinase-Nluc reporter destabilization hit call (TEC) 0 | kinase-Nluc reporter destabilization hit call (TYK2) 0 | kinase-Nluc reporter destabilization hit call (ULK3) 0 | kinase-Nluc reporter destabilization hit call (YES1) 0 | kinase-Nluc reporter destabilization hit call (ZAK) 0 | kinase-Nluc reporter destabilization hit call (ZAP70) 0
0: number of time points (AKT1)

CNCc1ccccc1Sc1cccc2ccccc12 [IFN alpha-IFNAR-IN-1 (hydrochloride)] (10 µM)
0: number of time points (AKT1)
inactive: kinase-Nluc reporter destabilization hit call (STK38) 0 | kinase-Nluc reporter destabilization hit call (SYK) 0 | kinase-Nluc reporter destabilization hit call (TEC) 0 | kinase-Nluc reporter destabilization hit call (TYK2) 0 | kinase-Nluc reporter destabilization hit call (ULK3) 0 | kinase-Nluc reporter destabilization hit call (YES1) 0 | kinase-Nluc reporter destabilization hit call (ZAK) 0 | kinase-Nluc reporter destabilization hit call (ZAP70) 0
2: number of time points (ABL1)

COc1cc2c(cc1OC)[C@@H]1C(=O)c3ccc4c(c3O[C@@H]1CO2)C=CC(C)(C)O4 [Deguelin] (10 µM)
0: number of time points (ABL1) | number of time points (AKT1)
inactive: kinase-Nluc reporter destabilization hit call (STK38) 0 | kinase-Nluc reporter destabilization hit call (SYK) 0 | kinase-Nluc reporter destabilization hit call (TEC) 0 | kinase-Nluc reporter destabilization hit call (TYK2) 0 | kinase-Nluc reporter destabilization hit call (ULK3) 0 | kinase-Nluc reporter destabilization hit call (YES1) 0 | kinase-Nluc reporter destabilization hit call (ZAK) 0 | kinase-Nluc reporter destabilization hit call (ZAP70) 0

N#Cc1cc(-c2ccnc(Nc3ccc(N4CCOCC4)cc3)n2)ccc1OC1CCOCC1 (10 µM)
inactive: kinase-Nluc reporter destabilization hit call (STK38) 0 | kinase-Nluc reporter destabilization hit call (SYK) 0 | kinase-Nluc reporter destabilization hit call (TEC) 0 | kinase-Nluc reporter destabilization hit call (TYK2) 0 | kinase-Nluc reporter destabilization hit call (ULK3) 0 | kinase-Nluc reporter destabilization hit call (YES1) 0 | kinase-Nluc reporter destabilization hit call (ZAK) 0 | kinase-Nluc reporter destabilization hit call (ZAP70) 0
0: number of time points (ABL1) | number of time points (AKT1)
